Assay [1] has as its target human tenascin C (human) (UniProt P24821). Nature of the assay: ELISA of fragments.
Assay [2] shares this target. Nature of the assay: ELISA on coated ECM protein.
For a further assay, the target named is human fibrinogen (human) (UniProt P02671+P02675+P02679). Nature of the assay: ELISA. In general terms: In an ELISA, binding on a coated surface is turned into a signal by an enzyme label.
Assay [3] deals with human plasma fibronectin (human) (UniProt P02751). Nature of the assay: ELISA.
The target in assay [4] is human tenascin C (human) (UniProt P24821). Nature of the assay: ELISA.
In assay [5] the target is human vitronectin (human) (UniProt P04004). The experiment in a line: ELISA.
Assay [6] has as its target human tenascin C (human) (UniProt P24821). The experiment in a line: ELISA of GST-fused fragments; compared with PIGF123-144.
The target is the same in assay [7]. Nature of the assay: ELISA of FIG. 1(B); GST-fused fragment on coated ECM protein.
For assay [8] the target is unchanged. The experiment in a line: ELISA; GST-fused fragment at 100 nM on coated ECM protein, anti-GST detection.

Sequences of proteins named here, by UniProt entry; tags and fusion partners are left off. A change or cut given only in a name is not applied to a line headed by its entry. A line that says so, or that is headed by a name, gives the form on record, which may keep a tag or linker. Residues count along the entry.
UniProt P24821, residues 23-2201: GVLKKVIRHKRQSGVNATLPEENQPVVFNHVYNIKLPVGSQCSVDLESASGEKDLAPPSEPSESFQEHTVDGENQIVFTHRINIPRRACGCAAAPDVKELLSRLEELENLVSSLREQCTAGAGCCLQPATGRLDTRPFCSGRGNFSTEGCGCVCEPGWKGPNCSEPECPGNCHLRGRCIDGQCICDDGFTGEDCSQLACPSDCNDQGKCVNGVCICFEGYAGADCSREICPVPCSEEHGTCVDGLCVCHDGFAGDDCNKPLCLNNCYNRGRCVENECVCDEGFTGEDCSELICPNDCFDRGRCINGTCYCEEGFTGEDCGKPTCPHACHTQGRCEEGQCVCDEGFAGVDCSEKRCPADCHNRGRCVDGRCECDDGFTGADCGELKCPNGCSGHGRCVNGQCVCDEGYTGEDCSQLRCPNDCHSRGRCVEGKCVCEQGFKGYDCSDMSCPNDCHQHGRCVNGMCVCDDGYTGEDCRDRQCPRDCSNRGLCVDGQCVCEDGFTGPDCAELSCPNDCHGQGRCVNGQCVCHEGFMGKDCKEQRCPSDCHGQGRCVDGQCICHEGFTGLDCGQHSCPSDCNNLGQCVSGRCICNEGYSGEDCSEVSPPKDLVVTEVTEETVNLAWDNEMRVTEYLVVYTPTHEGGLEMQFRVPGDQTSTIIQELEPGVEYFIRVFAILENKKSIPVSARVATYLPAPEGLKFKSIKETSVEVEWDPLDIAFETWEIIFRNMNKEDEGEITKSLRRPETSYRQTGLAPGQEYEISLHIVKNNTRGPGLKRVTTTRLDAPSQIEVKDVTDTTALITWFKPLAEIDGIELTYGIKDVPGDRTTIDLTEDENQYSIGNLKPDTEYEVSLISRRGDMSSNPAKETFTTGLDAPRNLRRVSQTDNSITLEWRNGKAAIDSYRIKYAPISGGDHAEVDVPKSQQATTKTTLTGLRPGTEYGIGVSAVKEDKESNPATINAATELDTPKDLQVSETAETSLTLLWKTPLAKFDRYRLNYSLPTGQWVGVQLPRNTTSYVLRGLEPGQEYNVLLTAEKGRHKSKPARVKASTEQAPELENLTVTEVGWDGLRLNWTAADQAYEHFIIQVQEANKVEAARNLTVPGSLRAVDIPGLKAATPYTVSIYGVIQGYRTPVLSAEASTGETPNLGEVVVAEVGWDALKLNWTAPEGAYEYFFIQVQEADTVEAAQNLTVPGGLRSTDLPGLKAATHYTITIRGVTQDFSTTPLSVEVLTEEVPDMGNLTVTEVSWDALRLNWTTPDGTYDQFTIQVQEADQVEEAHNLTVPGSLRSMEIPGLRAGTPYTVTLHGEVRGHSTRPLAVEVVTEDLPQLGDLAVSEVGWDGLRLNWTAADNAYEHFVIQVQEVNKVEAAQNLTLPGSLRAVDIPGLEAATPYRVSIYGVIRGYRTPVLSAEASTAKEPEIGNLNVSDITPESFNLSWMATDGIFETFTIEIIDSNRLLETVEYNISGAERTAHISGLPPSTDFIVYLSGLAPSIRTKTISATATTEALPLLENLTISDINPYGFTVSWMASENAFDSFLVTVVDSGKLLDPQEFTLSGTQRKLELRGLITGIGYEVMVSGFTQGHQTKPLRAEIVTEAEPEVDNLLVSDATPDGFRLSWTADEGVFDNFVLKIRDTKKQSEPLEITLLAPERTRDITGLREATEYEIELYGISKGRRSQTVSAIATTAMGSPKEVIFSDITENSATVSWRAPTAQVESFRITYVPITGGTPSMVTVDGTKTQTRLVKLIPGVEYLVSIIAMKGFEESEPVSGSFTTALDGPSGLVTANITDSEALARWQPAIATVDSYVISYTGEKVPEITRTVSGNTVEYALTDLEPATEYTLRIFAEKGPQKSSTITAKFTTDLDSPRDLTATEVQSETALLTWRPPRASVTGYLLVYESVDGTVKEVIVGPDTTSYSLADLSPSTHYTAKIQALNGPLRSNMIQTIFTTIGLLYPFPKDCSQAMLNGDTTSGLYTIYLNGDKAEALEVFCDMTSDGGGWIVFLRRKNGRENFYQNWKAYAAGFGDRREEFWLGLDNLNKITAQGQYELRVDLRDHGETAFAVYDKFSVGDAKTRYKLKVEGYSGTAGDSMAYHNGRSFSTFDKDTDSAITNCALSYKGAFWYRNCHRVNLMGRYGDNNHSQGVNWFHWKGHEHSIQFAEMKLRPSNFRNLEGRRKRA
UniProt P02675: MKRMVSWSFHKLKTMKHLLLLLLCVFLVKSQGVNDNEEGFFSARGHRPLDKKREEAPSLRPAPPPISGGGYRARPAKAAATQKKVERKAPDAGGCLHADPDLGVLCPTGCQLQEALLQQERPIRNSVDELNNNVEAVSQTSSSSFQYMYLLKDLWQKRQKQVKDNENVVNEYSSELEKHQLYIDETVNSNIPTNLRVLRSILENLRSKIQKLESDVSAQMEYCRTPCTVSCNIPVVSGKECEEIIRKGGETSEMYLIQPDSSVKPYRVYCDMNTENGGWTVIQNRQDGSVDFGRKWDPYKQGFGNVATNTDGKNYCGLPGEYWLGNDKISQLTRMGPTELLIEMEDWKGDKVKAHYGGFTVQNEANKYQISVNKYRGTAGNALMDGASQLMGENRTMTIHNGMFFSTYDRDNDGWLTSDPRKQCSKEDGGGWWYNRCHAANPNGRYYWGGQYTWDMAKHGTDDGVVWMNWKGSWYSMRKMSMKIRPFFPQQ
UniProt P02679: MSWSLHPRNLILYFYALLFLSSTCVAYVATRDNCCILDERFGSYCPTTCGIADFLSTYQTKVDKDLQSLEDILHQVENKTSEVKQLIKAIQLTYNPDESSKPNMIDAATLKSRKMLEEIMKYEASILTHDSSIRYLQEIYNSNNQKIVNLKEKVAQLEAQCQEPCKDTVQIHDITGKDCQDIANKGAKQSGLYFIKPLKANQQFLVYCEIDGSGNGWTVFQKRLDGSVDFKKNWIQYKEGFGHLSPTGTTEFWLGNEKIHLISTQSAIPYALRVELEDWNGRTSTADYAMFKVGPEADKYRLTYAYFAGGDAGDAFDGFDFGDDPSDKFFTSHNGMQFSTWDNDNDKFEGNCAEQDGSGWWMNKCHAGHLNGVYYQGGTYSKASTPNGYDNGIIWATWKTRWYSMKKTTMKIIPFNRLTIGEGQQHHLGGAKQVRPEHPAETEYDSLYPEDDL
human plasma fibronectin (P02751, form named): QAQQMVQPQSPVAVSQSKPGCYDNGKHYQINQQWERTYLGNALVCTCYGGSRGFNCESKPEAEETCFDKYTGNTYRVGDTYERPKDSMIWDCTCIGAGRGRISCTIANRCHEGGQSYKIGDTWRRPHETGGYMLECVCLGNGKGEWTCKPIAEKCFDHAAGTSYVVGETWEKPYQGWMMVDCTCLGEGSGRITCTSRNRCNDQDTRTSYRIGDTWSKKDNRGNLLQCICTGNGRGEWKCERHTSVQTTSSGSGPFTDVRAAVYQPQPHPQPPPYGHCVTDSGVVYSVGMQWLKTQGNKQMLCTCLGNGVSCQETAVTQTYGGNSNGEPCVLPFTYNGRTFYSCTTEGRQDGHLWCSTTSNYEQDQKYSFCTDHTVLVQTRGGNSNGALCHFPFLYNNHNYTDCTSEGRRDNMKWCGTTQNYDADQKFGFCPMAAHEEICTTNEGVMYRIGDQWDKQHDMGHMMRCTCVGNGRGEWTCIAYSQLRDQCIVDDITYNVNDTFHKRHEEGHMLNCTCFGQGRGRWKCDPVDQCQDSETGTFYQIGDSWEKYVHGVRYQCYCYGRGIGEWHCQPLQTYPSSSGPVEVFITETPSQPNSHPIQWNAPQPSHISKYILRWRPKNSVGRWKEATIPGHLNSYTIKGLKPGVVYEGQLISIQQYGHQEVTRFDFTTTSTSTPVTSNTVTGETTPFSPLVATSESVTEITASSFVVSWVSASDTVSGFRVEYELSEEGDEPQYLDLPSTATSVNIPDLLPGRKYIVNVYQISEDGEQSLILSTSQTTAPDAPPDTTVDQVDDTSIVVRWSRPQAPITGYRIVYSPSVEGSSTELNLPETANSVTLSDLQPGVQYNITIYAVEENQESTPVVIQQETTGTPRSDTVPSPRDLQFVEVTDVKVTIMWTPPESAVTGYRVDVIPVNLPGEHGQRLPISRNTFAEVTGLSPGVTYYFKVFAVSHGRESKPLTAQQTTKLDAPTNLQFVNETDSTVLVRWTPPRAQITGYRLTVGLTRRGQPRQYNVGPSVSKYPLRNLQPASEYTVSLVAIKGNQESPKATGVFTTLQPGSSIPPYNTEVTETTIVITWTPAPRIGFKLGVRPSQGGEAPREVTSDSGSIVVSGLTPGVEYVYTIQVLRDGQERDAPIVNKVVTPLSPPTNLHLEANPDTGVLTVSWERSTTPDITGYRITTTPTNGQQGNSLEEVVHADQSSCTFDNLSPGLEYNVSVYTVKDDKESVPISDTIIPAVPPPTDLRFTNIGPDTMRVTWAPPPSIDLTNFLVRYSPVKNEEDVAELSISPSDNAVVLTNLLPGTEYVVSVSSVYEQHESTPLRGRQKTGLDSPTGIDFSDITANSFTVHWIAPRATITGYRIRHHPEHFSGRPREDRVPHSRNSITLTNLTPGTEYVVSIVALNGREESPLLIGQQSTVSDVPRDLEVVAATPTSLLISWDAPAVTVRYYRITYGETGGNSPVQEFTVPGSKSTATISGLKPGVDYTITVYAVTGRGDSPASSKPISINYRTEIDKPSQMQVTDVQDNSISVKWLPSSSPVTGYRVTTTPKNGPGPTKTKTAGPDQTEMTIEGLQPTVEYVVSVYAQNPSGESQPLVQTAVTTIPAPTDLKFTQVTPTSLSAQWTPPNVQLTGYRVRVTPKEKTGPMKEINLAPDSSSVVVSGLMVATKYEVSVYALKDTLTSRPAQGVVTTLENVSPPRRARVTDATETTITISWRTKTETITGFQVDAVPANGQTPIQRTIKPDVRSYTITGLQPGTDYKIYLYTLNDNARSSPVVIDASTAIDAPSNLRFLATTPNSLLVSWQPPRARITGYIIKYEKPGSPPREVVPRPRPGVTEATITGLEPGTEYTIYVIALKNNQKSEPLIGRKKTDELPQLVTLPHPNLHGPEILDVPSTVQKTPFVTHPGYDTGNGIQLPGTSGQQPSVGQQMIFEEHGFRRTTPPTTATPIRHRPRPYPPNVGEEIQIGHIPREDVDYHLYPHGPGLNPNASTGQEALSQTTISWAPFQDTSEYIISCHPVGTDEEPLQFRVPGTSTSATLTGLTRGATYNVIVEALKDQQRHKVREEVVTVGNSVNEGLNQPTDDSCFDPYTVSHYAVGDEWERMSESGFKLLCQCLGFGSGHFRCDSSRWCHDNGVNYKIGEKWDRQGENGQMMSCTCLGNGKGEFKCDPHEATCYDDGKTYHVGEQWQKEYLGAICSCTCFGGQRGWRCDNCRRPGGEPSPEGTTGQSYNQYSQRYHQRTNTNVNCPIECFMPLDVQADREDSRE
UniProt P04004, residues 20-478: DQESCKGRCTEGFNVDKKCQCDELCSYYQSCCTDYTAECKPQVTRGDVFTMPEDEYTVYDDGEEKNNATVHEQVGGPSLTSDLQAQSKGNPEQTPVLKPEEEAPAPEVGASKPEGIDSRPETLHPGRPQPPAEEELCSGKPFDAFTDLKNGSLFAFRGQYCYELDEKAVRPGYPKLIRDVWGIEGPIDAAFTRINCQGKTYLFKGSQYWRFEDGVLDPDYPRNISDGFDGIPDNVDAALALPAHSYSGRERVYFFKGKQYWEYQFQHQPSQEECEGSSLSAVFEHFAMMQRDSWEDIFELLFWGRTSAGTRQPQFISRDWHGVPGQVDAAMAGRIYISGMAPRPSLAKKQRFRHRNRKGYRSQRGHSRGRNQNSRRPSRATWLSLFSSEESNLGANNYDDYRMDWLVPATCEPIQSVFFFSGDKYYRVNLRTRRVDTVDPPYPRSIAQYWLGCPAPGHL

Results are given in words; binding and its absence hold for the method and conditions named. Some binding calls cover weakened binding; strength is not graded here. For some assays here: Tags and fused reporters may be left off the sequences shown.

With RRLRQRRRLRRE (peptide, not shown: a dimerising Fc or GST; small tags and cut ends) [NRTN146-157 fragment (GST-fused construct from pGEX6P-1)], in the assay with human tenascin C (human) [1], the binding entry was “binds”.
The same measure, in the same setting: the value for RKKKGGKNGKNRR (peptide, not shown: a dimerising Fc or GST; small tags and cut ends) [AREG126-138 fragment (GST-fused construct from pGEX6P-1)] was “binds”.

B1: IL-1Ra/PIGF123-141 (protein)
chain: MNHKVHHHHHHMRPSGKRPCKMQAFRIWDTNQKTFYLRNNQLIAGYLQGPNIKLEEKIDMVPIDLHSVFLGIHGGKLCLSCAKSGDDIKLQLEEVNITDLSKNKEEDKRFTFIRSEKGPTTSFESAACPGWFLCTTLEADRPVSLTNTPEEPLIVTKFYFQEDQRRRPKGRGKRRREKQRPTD
For the molecule B1, in the assay with human tenascin C (human) [2], the binding result was “binds”.

B2: Placenta growth factor-2 (PIGF-2) (ligand)
chain: LPAVPPQQWALSAGNGSSEVEVVPFQEVWGRSYCRALERLVDVVSEYPSEVEHMFSPSCVSLLRCTGCCGDENLHCVPVETANVTMQLLKIRSGDRPSYVELTFSQHVRCECRPLREKMKPERRRPKGRGKRRREKQRPTDCHLCGDAVPRR
B2: the binding entry (with human fibrinogen (human); in [3]; with human tenascin C (human) [4]; in [5]) was “binds” throughout.
As for RRRPKGRGKRRREKQRPTD (peptide, not shown: a dimerising Fc or GST; small tags and cut ends) [GST-fused PIGF123-141 fragment], the binding result with human tenascin C (human) [1], with human tenascin C (human) [6], with human tenascin C (human) [7] and with human tenascin C (human) [8] was “binds” in each case.

The values above are taken from patent publication US20230272045A1.
